These results are taken from paper PMC11231564.

Sequences of proteins named here, by UniProt entry; tags and fusion partners are left off. Residues count along the entry.
UniProt P10155: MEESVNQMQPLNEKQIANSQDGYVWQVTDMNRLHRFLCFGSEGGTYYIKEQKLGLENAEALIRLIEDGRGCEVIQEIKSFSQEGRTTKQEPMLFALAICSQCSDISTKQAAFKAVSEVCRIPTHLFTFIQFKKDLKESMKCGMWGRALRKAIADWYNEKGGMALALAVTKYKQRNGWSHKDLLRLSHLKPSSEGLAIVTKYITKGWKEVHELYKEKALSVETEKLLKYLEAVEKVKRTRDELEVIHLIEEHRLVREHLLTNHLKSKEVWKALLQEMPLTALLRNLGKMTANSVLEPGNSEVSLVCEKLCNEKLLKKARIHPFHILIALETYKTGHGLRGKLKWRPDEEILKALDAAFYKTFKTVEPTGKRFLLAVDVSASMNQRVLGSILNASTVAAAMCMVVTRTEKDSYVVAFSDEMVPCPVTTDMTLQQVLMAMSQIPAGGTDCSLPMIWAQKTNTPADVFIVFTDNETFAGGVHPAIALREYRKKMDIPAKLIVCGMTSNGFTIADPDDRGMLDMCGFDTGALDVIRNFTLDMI
UniProt P02769, residues 25-607: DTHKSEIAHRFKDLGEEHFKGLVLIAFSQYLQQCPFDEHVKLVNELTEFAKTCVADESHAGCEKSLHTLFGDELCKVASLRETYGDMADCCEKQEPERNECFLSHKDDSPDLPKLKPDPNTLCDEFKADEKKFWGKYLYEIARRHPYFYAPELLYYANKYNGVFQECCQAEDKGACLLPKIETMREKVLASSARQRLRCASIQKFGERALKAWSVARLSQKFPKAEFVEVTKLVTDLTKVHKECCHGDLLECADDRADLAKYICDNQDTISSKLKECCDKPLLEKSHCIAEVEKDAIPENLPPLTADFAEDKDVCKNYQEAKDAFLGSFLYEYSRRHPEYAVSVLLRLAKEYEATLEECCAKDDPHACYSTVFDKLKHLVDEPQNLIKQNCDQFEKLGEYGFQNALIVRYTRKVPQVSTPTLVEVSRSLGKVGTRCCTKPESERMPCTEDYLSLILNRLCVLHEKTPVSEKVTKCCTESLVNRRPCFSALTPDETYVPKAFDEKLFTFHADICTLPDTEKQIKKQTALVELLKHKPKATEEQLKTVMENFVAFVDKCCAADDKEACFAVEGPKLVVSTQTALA

The target of the experiment is Ro60 protein (recombinant human protein) (human) (UniProt P10155). Briefly: QCM-D; Ro60 coupled to the chip; Ro52 300 mg/L (BSA 700 mg/L) flowed over; 1x PBS pH 7.4 lacking CaCl2, 50 µL/min, 25 °C; one-to-one binding kinetics model; apparent equilibrium constant; both purified.

These are yes or no findings as the source states them, for the method shown.

With “bovine serum albumin (from UniProt P02769 25-607)”, the binding entry is “no binding (tested: 700 mg/L)”.
